The results in this text go back to PMC4600982.

Amino acid sequences for entries named in this document (tags omitted).
UniProt P02795: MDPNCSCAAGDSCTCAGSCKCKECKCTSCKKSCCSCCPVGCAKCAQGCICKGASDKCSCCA

For the assay, the target named is GFP-tagged metallothionein 2A (MT2A), pEGFP-MT2A (UniProt P02795). Briefly: co-IP; HEK293 cells transfected with pEGFP or pEGFP-MT2A for 48 h; lysis in 150 mM NaCl, 20 mM Tris-HCl pH 7.5, 1% Triton X-100; specific antibodies or normal IgG, protein A/G beads overnight at 4 C; western blot. For orientation: In western blotting, separated proteins are transferred to a membrane and probed.

Results are given in words; binding and its absence hold for the method and conditions named. In cells and extracts the contact can be indirect. Some entries that bind do so weakly or less than the wild type.

B1: Homeobox containing 1 (HMBOX1) in HEK293 cells (protein, UniProt Q6NT76 1-420)
chain: MLSSFPVVLLETMSHYTDEPRFTIEQIDLLQRLRRTGMTKHEILHALETLDRLDQEHSDKFGRRSSYGGSSYGNSTNNVPASSSTATASTQTQHSGMSPSPSNSYDTSPQPCTTNQNGRENNERLSTSNGKMSPTRYHANSMGQRSYSFEASEEDLDVDDKVEELMRRDSSVIKEEIKAFLANRRISQAVVAQVTGISQSRISHWLLQQGSDLSEQKKRAFYRWYQLEKTNPGATLSMRPAPIPIEDPEWRQTPPPVSATSGTFRLRRGSRFTWRKECLAVMESYFNENQYPDEAKREEIANACNAVIQKPGKKLSDLERVTSLKVYNWFANRRKEIKRRANIEAAILESHGIDVQSPGGHSNSDDVDGNDYSEQDDSTSHSDHQDPISLAVEMAAVNHTILALARQGANEIKTEALDDD
As for B1, the binding entry is listed as “binds”.
